The assay has as its target EYFP-USP7 (UniProt Q93009). Kind of assay: co-IP; HepG2 cells transfected with plasmids for 24 h, then treated with ATO and/or PTL for 24 h; lysed in IP lysis buffer; IP of EYFP-USP7 with GFP-agarose; Western blot with the indicated antibodies.

Protein sequences, listed by entry. Tags and fused reporters are not part of them.
UniProt Q93009: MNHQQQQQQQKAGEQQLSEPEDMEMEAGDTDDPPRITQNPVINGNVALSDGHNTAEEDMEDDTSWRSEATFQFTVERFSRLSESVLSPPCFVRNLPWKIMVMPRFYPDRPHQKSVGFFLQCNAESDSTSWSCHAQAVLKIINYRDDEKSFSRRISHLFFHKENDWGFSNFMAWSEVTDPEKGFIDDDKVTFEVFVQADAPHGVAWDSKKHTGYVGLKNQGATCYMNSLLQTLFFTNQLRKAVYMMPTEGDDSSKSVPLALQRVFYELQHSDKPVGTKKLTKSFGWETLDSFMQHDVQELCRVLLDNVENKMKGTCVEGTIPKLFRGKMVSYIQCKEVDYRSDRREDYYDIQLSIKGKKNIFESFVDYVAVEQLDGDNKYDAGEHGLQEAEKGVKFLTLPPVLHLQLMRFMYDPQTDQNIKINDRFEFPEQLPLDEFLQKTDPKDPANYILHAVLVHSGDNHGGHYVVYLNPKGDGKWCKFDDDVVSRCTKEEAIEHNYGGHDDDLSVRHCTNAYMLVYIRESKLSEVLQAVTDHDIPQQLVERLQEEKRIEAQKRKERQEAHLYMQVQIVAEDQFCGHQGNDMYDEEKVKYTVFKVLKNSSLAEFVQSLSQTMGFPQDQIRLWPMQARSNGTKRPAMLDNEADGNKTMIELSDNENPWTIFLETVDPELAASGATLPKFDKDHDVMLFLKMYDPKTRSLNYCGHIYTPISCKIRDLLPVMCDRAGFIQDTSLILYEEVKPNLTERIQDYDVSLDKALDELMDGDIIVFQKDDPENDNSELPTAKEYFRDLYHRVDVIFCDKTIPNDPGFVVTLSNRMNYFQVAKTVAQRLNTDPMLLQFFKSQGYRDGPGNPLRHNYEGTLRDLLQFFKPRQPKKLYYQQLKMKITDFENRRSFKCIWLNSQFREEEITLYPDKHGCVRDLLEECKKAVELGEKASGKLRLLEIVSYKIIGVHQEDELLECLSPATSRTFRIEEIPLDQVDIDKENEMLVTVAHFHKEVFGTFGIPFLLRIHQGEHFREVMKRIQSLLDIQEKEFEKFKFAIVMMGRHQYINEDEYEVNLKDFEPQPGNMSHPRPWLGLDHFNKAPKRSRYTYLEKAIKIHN
UniProt Q7Z6Z7: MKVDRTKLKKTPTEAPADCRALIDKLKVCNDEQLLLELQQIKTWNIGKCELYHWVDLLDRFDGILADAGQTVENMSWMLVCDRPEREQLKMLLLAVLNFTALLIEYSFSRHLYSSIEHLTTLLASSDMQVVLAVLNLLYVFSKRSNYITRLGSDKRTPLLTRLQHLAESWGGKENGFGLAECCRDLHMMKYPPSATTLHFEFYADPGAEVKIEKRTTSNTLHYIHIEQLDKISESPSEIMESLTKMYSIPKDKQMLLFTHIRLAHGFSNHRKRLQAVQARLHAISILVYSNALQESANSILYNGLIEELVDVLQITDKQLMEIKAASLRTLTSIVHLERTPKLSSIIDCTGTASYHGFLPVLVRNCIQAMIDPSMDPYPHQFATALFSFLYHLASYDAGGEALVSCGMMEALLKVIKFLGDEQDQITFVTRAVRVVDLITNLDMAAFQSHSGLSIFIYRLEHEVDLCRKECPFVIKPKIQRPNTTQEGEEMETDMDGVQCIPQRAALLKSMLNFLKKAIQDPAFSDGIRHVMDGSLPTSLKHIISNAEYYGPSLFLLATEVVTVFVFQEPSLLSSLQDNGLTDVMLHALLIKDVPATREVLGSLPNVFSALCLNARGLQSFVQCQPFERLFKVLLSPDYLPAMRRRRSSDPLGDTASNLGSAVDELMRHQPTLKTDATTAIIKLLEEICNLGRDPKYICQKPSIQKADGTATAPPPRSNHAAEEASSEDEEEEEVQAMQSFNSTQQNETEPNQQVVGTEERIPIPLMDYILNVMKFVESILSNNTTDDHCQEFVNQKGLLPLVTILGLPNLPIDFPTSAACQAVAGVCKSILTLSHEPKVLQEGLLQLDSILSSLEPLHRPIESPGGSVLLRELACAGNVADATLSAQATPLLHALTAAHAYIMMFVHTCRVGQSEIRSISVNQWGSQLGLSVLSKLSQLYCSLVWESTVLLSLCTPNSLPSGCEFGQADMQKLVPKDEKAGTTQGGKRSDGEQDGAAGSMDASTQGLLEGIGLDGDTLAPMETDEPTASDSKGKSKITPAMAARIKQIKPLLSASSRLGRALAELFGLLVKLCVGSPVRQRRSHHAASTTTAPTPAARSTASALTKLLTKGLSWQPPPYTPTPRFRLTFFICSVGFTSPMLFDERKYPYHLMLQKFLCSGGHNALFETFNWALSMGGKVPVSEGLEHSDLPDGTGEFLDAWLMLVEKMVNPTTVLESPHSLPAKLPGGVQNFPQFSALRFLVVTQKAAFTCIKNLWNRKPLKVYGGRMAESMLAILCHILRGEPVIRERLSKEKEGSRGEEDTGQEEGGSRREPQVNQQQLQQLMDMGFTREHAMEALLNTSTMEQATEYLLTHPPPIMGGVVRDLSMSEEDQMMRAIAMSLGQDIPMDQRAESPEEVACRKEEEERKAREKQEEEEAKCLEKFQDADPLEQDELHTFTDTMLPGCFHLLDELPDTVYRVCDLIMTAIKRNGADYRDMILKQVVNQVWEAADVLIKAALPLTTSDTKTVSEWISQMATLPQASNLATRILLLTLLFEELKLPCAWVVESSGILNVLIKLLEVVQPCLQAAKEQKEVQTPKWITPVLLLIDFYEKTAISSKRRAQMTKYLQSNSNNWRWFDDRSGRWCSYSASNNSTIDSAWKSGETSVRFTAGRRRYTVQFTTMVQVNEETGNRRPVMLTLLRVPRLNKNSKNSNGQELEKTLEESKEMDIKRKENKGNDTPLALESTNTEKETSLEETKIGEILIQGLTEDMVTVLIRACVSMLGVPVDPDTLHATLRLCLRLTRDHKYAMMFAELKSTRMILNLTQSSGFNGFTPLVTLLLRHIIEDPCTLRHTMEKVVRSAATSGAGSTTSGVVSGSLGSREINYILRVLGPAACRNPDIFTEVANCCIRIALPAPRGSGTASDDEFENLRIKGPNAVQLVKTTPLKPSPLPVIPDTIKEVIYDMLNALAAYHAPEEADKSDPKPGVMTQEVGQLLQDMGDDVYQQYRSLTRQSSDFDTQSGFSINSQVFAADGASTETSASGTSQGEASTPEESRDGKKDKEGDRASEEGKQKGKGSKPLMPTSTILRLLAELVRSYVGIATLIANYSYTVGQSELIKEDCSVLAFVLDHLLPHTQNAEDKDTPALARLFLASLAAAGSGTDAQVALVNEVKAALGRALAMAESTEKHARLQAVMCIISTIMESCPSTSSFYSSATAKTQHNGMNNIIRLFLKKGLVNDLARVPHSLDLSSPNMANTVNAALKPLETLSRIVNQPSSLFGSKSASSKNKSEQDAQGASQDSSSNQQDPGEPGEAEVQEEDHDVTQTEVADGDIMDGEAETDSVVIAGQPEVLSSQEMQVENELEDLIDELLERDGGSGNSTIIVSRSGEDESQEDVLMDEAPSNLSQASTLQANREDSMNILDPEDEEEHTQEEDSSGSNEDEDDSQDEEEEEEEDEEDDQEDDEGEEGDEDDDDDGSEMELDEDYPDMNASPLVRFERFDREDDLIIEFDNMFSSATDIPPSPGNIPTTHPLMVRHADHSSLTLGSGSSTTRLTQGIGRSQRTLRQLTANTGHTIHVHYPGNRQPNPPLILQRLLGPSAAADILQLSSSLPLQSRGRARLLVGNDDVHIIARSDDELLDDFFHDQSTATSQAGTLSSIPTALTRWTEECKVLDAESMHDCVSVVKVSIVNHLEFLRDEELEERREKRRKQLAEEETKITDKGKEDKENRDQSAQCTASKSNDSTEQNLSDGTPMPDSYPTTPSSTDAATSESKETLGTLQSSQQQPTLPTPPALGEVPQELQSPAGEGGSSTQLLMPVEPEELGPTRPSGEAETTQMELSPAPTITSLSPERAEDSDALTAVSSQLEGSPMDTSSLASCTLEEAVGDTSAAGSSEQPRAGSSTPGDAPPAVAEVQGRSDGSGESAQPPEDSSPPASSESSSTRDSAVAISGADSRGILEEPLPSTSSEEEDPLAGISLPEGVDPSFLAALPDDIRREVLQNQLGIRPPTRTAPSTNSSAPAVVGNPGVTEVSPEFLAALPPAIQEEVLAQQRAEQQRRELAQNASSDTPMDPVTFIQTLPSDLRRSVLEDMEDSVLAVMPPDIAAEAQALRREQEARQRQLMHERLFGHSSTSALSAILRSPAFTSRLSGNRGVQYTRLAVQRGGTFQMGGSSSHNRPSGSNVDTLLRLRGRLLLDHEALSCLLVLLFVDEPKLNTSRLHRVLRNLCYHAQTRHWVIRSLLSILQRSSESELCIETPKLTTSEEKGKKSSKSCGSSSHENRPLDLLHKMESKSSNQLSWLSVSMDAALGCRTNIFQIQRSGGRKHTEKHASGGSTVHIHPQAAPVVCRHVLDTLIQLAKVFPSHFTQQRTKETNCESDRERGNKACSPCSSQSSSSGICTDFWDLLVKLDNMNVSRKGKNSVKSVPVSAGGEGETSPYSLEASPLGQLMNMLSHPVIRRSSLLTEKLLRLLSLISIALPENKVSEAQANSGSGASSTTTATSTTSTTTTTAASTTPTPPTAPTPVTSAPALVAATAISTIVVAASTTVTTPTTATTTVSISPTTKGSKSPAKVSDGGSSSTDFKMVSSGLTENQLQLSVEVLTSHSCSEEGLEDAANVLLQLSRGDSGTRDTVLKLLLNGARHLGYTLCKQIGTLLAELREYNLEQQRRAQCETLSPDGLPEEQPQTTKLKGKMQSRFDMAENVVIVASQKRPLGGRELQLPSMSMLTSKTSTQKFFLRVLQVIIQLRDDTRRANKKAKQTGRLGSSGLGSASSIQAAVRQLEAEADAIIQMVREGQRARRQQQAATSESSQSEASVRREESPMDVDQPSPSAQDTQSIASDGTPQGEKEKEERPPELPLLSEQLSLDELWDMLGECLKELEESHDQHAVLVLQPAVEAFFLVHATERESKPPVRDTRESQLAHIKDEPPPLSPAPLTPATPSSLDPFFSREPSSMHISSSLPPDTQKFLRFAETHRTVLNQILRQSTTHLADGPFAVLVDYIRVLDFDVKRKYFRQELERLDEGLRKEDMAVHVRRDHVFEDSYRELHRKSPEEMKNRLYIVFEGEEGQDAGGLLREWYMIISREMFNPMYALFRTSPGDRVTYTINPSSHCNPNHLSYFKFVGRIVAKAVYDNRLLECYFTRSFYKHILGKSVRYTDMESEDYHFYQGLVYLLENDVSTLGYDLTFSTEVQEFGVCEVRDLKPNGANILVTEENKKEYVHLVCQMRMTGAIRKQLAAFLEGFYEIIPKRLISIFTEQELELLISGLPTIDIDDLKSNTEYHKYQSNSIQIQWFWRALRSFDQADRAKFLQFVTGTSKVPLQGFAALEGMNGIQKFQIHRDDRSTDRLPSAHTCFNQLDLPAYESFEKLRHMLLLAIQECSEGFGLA

These are yes or no findings as the source states them, for the method shown. Binding seen in cells or lysates may run through a third protein. Some binding calls cover weakened binding; strength is not graded here.

Turning to “HUWE1 (from UniProt Q7Z6Z7 1-4374) (enzyme)”, the binding entry is “binds”.

The values above are taken from paper PMC9638029.
